Results: PubChem BioAssay AID493014 (National Center for Advancing Translational Sciences (NCATS), 2011)
This is one part of the list. These are further read-outs of the screen, such as a control signal, another cell line or another target. No call is given for them. Compounds called inactive in the main read-out are mostly missing here. Potencies come from curve fits of mixed quality, noted in brackets.

Experiment: qHTS Assay to Find Inhibitors of Chronic Active B-Cell Receptor Signaling
Conditions: ABC-DLBCL IkBa-CBG/CBR reporter, luminescence ratio (green luciferase fused to IkBa over red control in TMD8 lymphoma cells), 4 h
Method in brief: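 TMD8 human ABC-DLBCL cells with doxycycline-inducible IκBα–green luciferase fusion and unfused red luciferase, in 0.5% FBS medium; compounds up to 46 uM, 4 h at 37C. Green/red luminescence ratio, filter-overlap corrected, fitted to concentration-response curves.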

[1] = measured here: CBR red luminescence, cell number
[2] = measured here: IkBa-CBG green luminescence

Compound	AC50 [1]	AC50 [2]
CCOc1ccc(NC(=O)CN(C)C(=O)CCCOc2ccc(Cl)c(C)c2)cc1OCC	8.91 µM [falling, partial curve]	
CC1=C(C(=O)Nc2ccccc2)S(=O)(=O)CCO1	3.98 µM [falling, partial curve]	
Cc1cc(C(=O)Nc2ccc3c(c2)OCCO3)nn1C(C)(C)C	35.5 µM [rising, single point]	
COP(=O)(OC)c1nc(-c2ccc([N+](=O)[O-])cc2)oc1N1CCCCC1	35.5 µM [falling, single point]	
COC(=O)C1=C(c2cccc(C#N)c2)C[C@@H]2CC[C@H]1N2C(=O)NCCc1ccccc1	32.6 µM [falling, partial curve, poor fit]	
CCC(=NC(C)c1ccccc1)c1c(O)[nH]c(=O)[nH]c1=O (centres undefined)	35.5 µM [falling, single point]	
c1ccc2c(c1)OCC(C1=NCCN1)O2 (centres undefined)	2.51 µM [falling, full curve, poor fit]	
O=C(CCC(=O)N1C[C@H]2C[C@@H](C1)c1cccc(=O)n1C2)NCc1ccccc1C(F)(F)F	7.31 µM [falling, partial curve]	
CC12CC[C@H]3[C@@H](CCC4(O)C[C@H](O)CCC34/C=N/NC(=O)c3ccc(O)cc3)C1(O)CCC2C1=CC(=O)OC1 (some centres undefined)	1.78 µM [falling, full curve]	
CCC1CO/C(=C(\C(Cl)=C(Cl)Cl)[N+](=O)[O-])N1Cc1ccc(Cl)nc1 (centres undefined)	14.1 µM [rising, single point]	
O=C1CC(N2CC=C(c3ccc(F)cc3)CC2)C(=O)N1c1ccc(F)cc1 (centres undefined)	35.5 µM [falling, single point]	
CN(C)c1ccc(-[n+]2c(-c3ccccc3)cc(-c3ccccc3)cc2-c2ccccc2)cc1	11.2 µM [falling, partial curve, poor fit]	
CC1CCC(C(C)C)C(OC(=O)COC(=O)c2ccccc2N)C1 (centres undefined)	16.4 µM [rising, single point]	
O=C(Nc1ccc(N2CCOCC2)cc1)c1ccc([N+](=O)[O-])o1	14.1 µM [falling, single point]	
NS(=O)(=O)c1ccc(N=Nc2c(O)[nH]c(=S)[nH]c2=O)cc1	2.82 µM [falling, full curve]	
CN(C)S(=O)(=O)c1cccc(NC(=O)CSc2cccc3cccnc23)c1	35.5 µM [falling, single point]	
COC(=O)C1=C(c2cccc(OCc3ccccc3)c2)C[C@@H]2CC[C@H]1N2C(=O)NCc1ccc(C(C)(C)C)cc1	20.6 µM [rising, single point]	
O=C(N/N=C/c1c(O)n(-c2ccccc2)c(=S)[nH]c1=O)c1ccccc1	2.24 µM [falling, full curve]	
Cc1ccc(C(=O)C2C(=O)c3ccccc3C2=O)cc1	15.8 µM [falling, single point]	
C[C@@H]1O[C@@H](O[C@@H]2C=C3CCC4C(CC[C@]5(C)[C@@H](c6ccc(=O)oc6)CC[C@]45O)[C@@]3(C)CC2)[C@H](O)[C@H](O)[C@H]1O (some centres undefined)	0.0411 µM [falling, full curve]	
Cn1c(O)c(C2=NN(C(=O)CCl)C(c3ccccc3)C2)c(=O)n(C)c1=O (centres undefined)	17.8 µM [falling, partial curve, poor fit]	

Three records drawn at random from those above, as already listed:
Compound	AC50 [1]	AC50 [2]
COP(=O)(OC)c1nc(-c2ccc([N+](=O)[O-])cc2)oc1N1CCCCC1	35.5 µM [falling, single point]	
CCC(=NC(C)c1ccccc1)c1c(O)[nH]c(=O)[nH]c1=O (centres undefined)	35.5 µM [falling, single point]	
Cn1c(O)c(C2=NN(C(=O)CCl)C(c3ccccc3)C2)c(=O)n(C)c1=O (centres undefined)	17.8 µM [falling, partial curve, poor fit]	

Continuation:

Compound	AC50 [1]	AC50 [2]
CC12CC[C@H]3[C@@H](CCC4(O)C[C@H](O)CCC34/C=N/NC(=O)c3ccccc3O)C1(O)CCC2C1=CC(=O)OC1 (some centres undefined)	11.2 µM [falling, partial curve, poor fit]	
Cc1cc(Cl)c(S(=O)(=O)N2CCN(c3ccccn3)CC2)cc1OCC(=O)NC1CCCCC1	22.4 µM [falling, single point]	
COC(=O)C1=C(c2ccc3ccccc3c2)C[C@@H]2CC[C@H]1N2C(=O)N1CCCC1	25.9 µM [falling, single point]	
COc1c(C)cc(C(=O)C2CCCN(Cc3ccccn3)C2)cc1C (centres undefined)	3.55 µM [rising, single point]	
Cc1c(C=O)c2ccccc2n1Cc1ccccc1F	35.5 µM [rising, partial curve, poor fit]	
CNP1(NC)=Nc2nn(-c3ccccc3)c(N)c2C(c2ccccc2)=N1	28.2 µM [falling, single point]	
CN1CCC2(CC1)C(C#N)=C(N)NC(S)=C2C#N	5.01 µM [rising, single point]	
O=C(O)CNC(=O)C(CS)Cc1ccccc1 (centres undefined)	5.8 µM [rising, partial curve, poor fit]	
CN1CCN(c2cn[nH]c(=O)c2Cl)CC1	12.6 µM [falling, single point]	
Oc1c(Br)cc(Br)cc1Oc1ccc(Br)cc1Br	25.9 µM [rising, single point]	
Clc1ccc(N=NN2CCOCC2)cc1	4.47 µM [rising, partial curve, poor fit]	
C=CCn1c(O)c(/C(C)=N/N2CCCCCC2)c(=O)[nH]c1=O	8.91 µM [falling, partial curve, poor fit]	
O=[N+]([O-])c1ccc(N2CCNCC2)cc1N1CCCCCC1	11.2 µM [falling, partial curve]	
O=C1NC(=O)[C@]2(Cc3ccccc3N3CCN(c4ccccc4)CC32)C(=O)N1c1ccccc1 (some centres undefined)	8.91 µM [falling, partial curve, poor fit]	
CCCCn1c(N)c(C(=O)OCC2CCCO2)c2nc3ccccc3nc21 (centres undefined)	9.2 µM [falling, partial curve]	
O=C(COc1ccc(Cl)cc1)N1CCN(C2CCCC2)CC1	5.62 µM [falling, partial curve, poor fit]	
Cc1c(C(=O)N2CCC3(CC2)OCCO3)sc2ncnc(N(C)c3ccccc3)c12	0.631 µM [rising, partial curve, poor fit]	
C1=C(CCNCc2ccccc2)CCCC1	20.6 µM [falling, single point]	18.4 µM [rising, partial curve, poor fit]
Cc1nc2ccccc2c(=O)n1-c1ccc(Cl)cc1Cl	8.91 µM [rising, partial curve]	
CN(C)C(=O)Oc1noc2cc(Cl)ccc12	0.112 µM [rising, full curve, poor fit]	
C[C@]12CCC3C(CCC4=CC(O)CC[C@@]43/C=N/O)C1(O)CCC2C1=CC(=O)OC1 (some centres undefined)	0.631 µM [rising, full curve, poor fit]	

Compound	AC50 [1]	AC50 [2]
CCN1CCN(C(=O)Cc2c(C)n(C(=O)c3ccc(Cl)cc3)c3ccc(OC)cc23)CC1	17.8 µM [falling, single point]	
CCCCOC(=O)C1=C(N)OC2=C(C(=O)CCC2)[C@]12C(=O)Nc1ccccc12	0.0164 µM [falling, full curve, poor fit]	
Cc1[nH]c2ccc(OC(F)(F)F)cc2c1CCNCc1cccc([N+](=O)[O-])c1	35.5 µM [falling, partial curve, poor fit]	
CCOC(=O)C1(CCOc2ccccc2)CCN(Cc2ccc(NC(C)=O)cc2)CC1	35.5 µM [rising, single point]	
Cn1c(O)c(/C=N/NC(=O)c2ccncc2)c(=O)n(C)c1=S	8.91 µM [falling, partial curve, poor fit]	
CCCCNC(=O)CN1C(=O)CN=C(c2ccccc2)c2ccccc21	1.41 µM [rising, full curve]	
C[C@]12CC[C@H](O)C[C@H]1CC[C@@H]1[C@@H]2CC[C@]2(C)[C@@H](C3=CC(=O)OC3)CC[C@]12O	2.06 µM [falling, partial curve]	
CN(C)CC1CCCCC1OC(=O)c1ccc(Cl)c(Cl)c1 (centres undefined)	29.1 µM [falling, single point]	
COc1ccc(-c2cc(=Nc3cccc(C(=O)O)c3)c3cc(C)ccc3o2)cc1	3.55 µM [rising, partial curve]	
O=C(/C=C/C=C/c1ccccc1)CC1(O)C(=O)Nc2ccccc21 (centres undefined)	12.6 µM [falling, single point]	12.6 µM [rising, partial curve, poor fit]
CCOC(=O)c1c(N)n(Cc2ccco2)c2nc3ccccc3nc12	1.12 µM [falling, full curve, poor fit]	
CCC(C)NC(=O)c1c(N)n(CCCOC)c2nc3ccccc3nc12 (centres undefined)	11.2 µM [falling, partial curve]	
CCC(=NCCCn1ccnc1)c1c(O)n(Cc2ccccc2)c(=O)[nH]c1=O	23.1 µM [falling, single point]	
Cc1cc(C)cc(OCCOc2cccc(C=C3C(=O)NC(=O)NC3=O)c2)c1	15.8 µM [falling, single point]	
CN1C(=O)NC(=O)[C@]2(Cc3ccccc3N3CCN(c4ccccc4)CC32)C1=O (some centres undefined)	2.59 µM [falling, full curve]	
c1ccc2c(CN3CCCCCCC3)c[nH]c2c1	35.5 µM [falling, single point]	
Cc1ccccc1Cc1c(C)nc2nc(SCC(=O)N3CCC4(CC3)OCCO4)nn2c1C	20.6 µM [rising, single point]	
NC(=O)CSc1nnc([C@@H](N)Cc2c[nH]c3ccccc23)o1	3.98 µM [falling, full curve, poor fit]	
Clc1ccc(COC(Cn2ccnc2)c2ccc(Cl)cc2Cl)cc1 (centres undefined)	35.5 µM [falling, single point]	12.6 µM [rising, partial curve, poor fit]
